From paper PMC6182170
Changes are numbered by the printed parent chain. Results are given in words; binding and its absence hold for the method and conditions named. Binding seen in cells or lysates may run through a third protein. Some results given as binding are weak or reduced against the parent protein; the word gives no strength. Sequences can lack the tags named with a protein.

Sequences of proteins named here, by UniProt entry; tags and fusion partners are left off.
UniProt Q22618: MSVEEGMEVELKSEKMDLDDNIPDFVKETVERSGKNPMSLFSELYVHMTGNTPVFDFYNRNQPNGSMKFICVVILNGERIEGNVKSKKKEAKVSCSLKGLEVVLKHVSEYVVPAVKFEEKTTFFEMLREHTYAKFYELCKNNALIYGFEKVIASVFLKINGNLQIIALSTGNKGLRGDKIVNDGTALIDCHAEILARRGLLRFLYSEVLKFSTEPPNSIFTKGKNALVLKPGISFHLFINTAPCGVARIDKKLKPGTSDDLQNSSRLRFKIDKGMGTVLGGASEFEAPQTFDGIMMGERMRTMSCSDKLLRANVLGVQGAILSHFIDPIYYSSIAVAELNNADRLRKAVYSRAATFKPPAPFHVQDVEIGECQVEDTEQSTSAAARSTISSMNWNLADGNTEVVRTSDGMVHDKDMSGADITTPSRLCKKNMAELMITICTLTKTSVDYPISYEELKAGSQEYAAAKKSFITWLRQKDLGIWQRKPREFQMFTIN

Assays:
[1] = target: T1, 3XFLAG-ADR-1 (wild type), expressed from the genomic adr-1 transgene in worms (C. elegans) (UniProt Q9U3D6); assay: co-IP; in vivo co-IP: worm lysates (no UV crosslinking) incubated with anti-FLAG magnetic beads to precipitate 3XFLAG-ADR-1; washed with RIP wash buffer; immunoblot with FLAG and ADR-2 (PA6496) antibodies
T1 sequence: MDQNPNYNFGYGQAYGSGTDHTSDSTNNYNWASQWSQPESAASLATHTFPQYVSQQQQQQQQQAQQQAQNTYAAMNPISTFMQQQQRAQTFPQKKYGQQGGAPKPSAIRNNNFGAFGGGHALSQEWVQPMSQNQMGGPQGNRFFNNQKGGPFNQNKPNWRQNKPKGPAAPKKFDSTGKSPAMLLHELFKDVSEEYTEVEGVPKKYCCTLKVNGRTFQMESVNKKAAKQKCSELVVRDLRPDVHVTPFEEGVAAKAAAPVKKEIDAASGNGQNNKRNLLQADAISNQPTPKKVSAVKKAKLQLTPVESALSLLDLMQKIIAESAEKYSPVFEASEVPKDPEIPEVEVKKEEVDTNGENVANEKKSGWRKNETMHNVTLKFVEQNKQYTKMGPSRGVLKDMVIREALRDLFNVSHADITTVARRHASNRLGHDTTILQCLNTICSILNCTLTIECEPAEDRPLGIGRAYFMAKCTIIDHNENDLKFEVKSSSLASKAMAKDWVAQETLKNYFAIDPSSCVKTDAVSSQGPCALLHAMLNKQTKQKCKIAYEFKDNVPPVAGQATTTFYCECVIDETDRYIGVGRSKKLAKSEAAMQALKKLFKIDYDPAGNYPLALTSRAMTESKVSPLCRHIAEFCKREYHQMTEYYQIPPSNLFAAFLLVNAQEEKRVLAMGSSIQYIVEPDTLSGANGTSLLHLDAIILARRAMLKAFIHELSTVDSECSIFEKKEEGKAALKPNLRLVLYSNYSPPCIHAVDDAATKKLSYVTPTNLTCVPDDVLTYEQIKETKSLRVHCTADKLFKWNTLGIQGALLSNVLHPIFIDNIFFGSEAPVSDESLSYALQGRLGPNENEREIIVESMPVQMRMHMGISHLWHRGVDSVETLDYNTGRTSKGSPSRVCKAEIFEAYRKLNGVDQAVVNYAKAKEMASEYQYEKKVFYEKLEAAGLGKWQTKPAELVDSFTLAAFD

[2] = target: T2, 3XFLAG-ADR-1 dsRBD1 mutant (K223E, K224A, K227A), expressed in worms (C. elegans) (UniProt Q9U3D6); assay: as above
T2 sequence: T1 sequence with K223E, K224A, K227A

Substance: ADR-2, endogenous in worm lysate (from UniProt Q22618 1-495) (enzyme)
- binding [1]: binds
- binding [2]: binds
